Tests used:
[1] = test system: GAME25-Ox transgenic tomato lines; test: SGA levels by LC-MS in GAME25 over-expressing (GAME25-Ox) tomato lines compared to wild-type; assay type: in vivo, Solanum lycopersicum
[2] = test system: GAME25-Ox eggplant (cv. Tudela); test: SGA and steroidal saponin profile of eggplant overexpressing tomato GAME25; assay type: in vivo, Solanum melongena; conditions: lines #E1, #E2

acetoxy-hydroxytomatine
change in level compared to wild-type green fruits ([1]; GAME25-Ox tomato green fruits): significant increase

malonyl-solamargine
change in level in GAME25-Ox eggplant leaves compared to wild type [2]: reduction

saturated malonyl-solamargine [saturated form of malonyl-solamargine]
change in level in GAME25-Ox eggplant leaves compared to wild type [2]: major accumulation

soladulcine A
change in level in GAME25-Ox eggplant leaves compared to wild type [2]: major accumulation

α-tomatine isomer 2 [α-tomatine (isomer 2)]
change in level compared to wild-type leaves ([1]; GAME25-Ox tomato leaves, lines #91, #92, #93): increased significantly

β-soladulcine
change in level in GAME25-Ox eggplant leaves compared to wild type [2]: major accumulation

— patent publication US12129475B2, “Glycoalkaloid metabolism enyzymes (GAMES) and uses thereof” (priority 2017, dated 2024)
